In article PMC4823986:
These are yes or no findings as the source states them, for the method shown. Binding seen in cells or lysates may run through a third protein. These calls come from enrichment with a bait or labelling near it, and not all partners need be listed.

Sequences of proteins named here, by UniProt entry; tags and fusion partners are left off. A change or cut given only in a name is not applied to a line headed by its entry.
UniProt P46223: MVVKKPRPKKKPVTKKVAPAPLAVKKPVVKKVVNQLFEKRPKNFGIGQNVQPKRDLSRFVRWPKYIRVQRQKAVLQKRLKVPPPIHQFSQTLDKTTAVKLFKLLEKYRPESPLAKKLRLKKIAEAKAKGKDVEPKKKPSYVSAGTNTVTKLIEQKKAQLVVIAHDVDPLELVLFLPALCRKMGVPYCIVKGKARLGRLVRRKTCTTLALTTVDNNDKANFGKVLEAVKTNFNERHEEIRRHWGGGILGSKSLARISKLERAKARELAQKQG

T1: Clueless (Clu), endogenous in S2R+ cells (Drosophila (endogenous in S2R+ cells)) (UniProt A1ZAB5)
T1 sequence: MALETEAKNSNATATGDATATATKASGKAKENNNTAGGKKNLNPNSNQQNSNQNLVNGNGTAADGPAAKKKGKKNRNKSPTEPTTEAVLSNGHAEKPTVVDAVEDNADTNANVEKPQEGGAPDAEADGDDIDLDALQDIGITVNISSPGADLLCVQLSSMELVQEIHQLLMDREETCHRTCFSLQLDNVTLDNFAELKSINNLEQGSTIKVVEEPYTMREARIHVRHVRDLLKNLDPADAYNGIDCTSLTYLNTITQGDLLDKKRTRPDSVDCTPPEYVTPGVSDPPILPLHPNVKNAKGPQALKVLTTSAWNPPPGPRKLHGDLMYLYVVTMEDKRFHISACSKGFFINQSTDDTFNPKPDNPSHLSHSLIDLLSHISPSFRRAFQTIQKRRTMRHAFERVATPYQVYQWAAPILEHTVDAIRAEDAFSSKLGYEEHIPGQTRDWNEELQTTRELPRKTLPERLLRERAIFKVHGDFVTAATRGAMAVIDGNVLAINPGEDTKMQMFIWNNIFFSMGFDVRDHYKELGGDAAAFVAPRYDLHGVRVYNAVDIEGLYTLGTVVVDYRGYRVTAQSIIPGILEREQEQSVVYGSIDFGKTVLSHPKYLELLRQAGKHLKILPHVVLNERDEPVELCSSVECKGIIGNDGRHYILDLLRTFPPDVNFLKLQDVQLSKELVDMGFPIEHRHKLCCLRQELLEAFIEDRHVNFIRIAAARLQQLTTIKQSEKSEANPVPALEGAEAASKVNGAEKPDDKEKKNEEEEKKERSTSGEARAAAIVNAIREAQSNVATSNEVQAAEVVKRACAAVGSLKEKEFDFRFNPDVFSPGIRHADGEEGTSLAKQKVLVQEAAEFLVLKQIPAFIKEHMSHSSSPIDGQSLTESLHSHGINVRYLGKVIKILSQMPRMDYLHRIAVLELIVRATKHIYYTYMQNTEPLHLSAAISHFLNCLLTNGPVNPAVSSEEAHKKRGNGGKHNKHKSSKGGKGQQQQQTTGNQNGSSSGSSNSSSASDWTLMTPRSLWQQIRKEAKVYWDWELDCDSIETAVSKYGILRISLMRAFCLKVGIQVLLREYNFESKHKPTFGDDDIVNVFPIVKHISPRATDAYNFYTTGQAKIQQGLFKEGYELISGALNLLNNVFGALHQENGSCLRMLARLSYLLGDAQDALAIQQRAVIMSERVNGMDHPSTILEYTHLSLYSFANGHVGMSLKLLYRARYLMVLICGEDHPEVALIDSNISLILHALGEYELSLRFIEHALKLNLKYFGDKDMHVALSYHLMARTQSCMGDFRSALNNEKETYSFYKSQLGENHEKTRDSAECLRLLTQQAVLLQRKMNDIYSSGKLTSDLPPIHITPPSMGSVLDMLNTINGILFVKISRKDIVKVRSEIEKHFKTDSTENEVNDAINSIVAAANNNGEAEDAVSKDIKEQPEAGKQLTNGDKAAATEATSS

B1: small Ribosomal protein RpS7, endogenous in S2R+ cells (protein, UniProt Q9VA91 1-194)
chain: MAIGSKIIKPGGSDPDDFEKSIAQALVELEANSDLKPYLRDLHITRAREIEFGSKKAVIIYVPIPQQKVFQKIQIILVRELEKKFSGKHVVVIAERKILPKPTRKARNPLKQKRPRSRTLTAVYDAILEDLVFPAEIVGKRIRVKLDGSQLVKVHLDKNQQTTIEHKVDTFTSVYKKLTGRDVTFEFPDNYLNV
B2: small Ribosomal protein (RpS) 4, endogenous in S2R+ cells (protein, UniProt P41042 1-261)
chain: MARGPKKHLKRLAAPKAWMLDKLGGVFAPRPSTGPHKLRESLPLLIFLRNRLKYALNGAEVTKIVMQRLVKVDGKVRTDPTYPAGYMDVITLEKTGEFFRLVYDVKGRFVIHRISAEEAKYKLCKVKKTQLGAKGVPFLVTHDGRTIRYPDPLIHANDSVQVDIASGKITDYIKFDSGNLCMITGGRNLGRVGTVVNRERHPGSFDIVHIKDSQGHVFATRLTNVFIIGKGNKPYISLPKGKGVKLSIAEERDKRLAAKTH

The molecules below were run against T1, Clueless (Clu), endogenous in S2R+ cells (Drosophila (endogenous in S2R+ cells)) (assay: affinity purification with mass spectrometry; anti-Clu IP from S2R+ cell extract, guinea pig IgG as control; Colloidal Blue bands (~38 kDa and ~30 kDa) cut and analysed by NanoLC-ESI-MS/MS).

binding | Molecule
binds | large Ribosomal protein (RpL) 7a, endogenous in S2R+ cells (from UniProt P46223 1-271)
binds | B1
binds | B2
